Patent US7507806B2, “Nucleic acid sequences of human Rif1” (The Rockefeller University, priority 2004, dated 2009)
At least one structure is not confirmed: it was looked up by name or label, or the drawing left a doubt.

Tested on: Rif1 foci
Test: IR-induced Rif1 foci by indirect immunofluorescence
Format: cell-based, human
Settings: IMR90 cells or U2OS cells, wortmannin 1 hr prior to 5 Gy IR

COC[C@H]1OC(=O)c2coc3c2[C@@]1(C)C1=C(C3=O)[C@@H]2CCC(=O)[C@@]2(C)C[C@H]1OC(C)=O [wortmannin] was tested, and the Rif1 foci was “repressed”.
